The values that follow come from PMC7819943, “Rice protein-binding microarrays: a tool to detect cis-acting elements near promoter regions in rice”.

The chains behind the UniProt entries cited, without tags or fusion partners.
UniProt Q0JBA9, entry or part of it: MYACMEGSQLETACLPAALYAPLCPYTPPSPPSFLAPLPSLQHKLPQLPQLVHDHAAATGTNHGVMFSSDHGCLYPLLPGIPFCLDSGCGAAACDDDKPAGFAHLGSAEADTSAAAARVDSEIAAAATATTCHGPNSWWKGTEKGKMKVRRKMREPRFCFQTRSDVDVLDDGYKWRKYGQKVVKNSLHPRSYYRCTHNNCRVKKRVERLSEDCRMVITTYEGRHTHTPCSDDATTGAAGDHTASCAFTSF

This is one part of the list.

The target of this assay is OsWRKY34 (Oryza sativa, UniProt Q0JBA9 1-250). The assay can be described thus: protein-binding microarray (RPBM); PBS, 2% BSA, 51.3 ng/ul salmon testes DNA, 50 uM zinc acetate, 200 nM TF, 25 C, 1 h; high values mean tight binding. The following applies: protein: recombinant; tags: N-terminal polyhistidine and DsRed monomer fusion (pET32a); label: CyDye5-dUTP incorporated in the synthesized complementary strand; 3' TTTTT single-stranded linker to array surface; dsDNA, one strand shown. In short, it runs like this: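 Polyhistidine-tagged DsRed fusions of transcription factors, joined at the N-terminus, were expressed in E. coli BL21-CodonPlus and isolated on Ni–NTA. They were incubated at 200 nM for 1 h at 25 °C on a custom Agilent array, double-stranded and BSA-blocked, in PBS with 2% BSA, salmon testes DNA and 50 µM zinc acetate. The binding signal is per-feature fluorescence intensity (arbitrary units) read on an Axon 4000B scanner after washing.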
In the case of “TGGGGTTGACTTGTTTTATCACTACTCGAAGGAACGGCTCCGGAGTCACCTAGTGCAG”, the binding signal was 10300 fluorescence intensity (a.u.). Take “CAGCCGTCCACTTTTCAACCCTATGTCGGATTTATACAGTCGGAGTCACCTAGTGCAG”: the binding signal was 11300 fluorescence intensity (a.u.). Take “GGAGCTGGAGTTGCATGCATTGCTTTACCCTGGCCGTATGCGGAGTCACCTAGTGCAG”: the binding signal is 8590 fluorescence intensity (a.u.).

As for “TTTTTCCTGTGTTTTGTAATCCTCTATTTTACACTTATATCGGAGTCACCTAGTGCAG”, the binding signal is 10900 fluorescence intensity (a.u.). With “TTACGCCTACCACATCGCTCCTGCTGTCTGCTGTCCTAGCCGGAGTCACCTAGTGCAG”, the binding signal was 9180 fluorescence intensity (a.u.). With “TTCAATATGTTGCGCATATTTGATCTGTTCATGTTATTCTCGGAGTCACCTAGTGCAG”, the binding signal is 8390 fluorescence intensity (a.u.). Consider “CTCTAGTTTCCATTCCATTTCCACCGCCACTCCCACCCAACGGAGTCACCTAGTGCAG”, for which the binding signal was 8380 fluorescence intensity (a.u.).

For the sequence “GGATCGGATCGATCATTCTCGTGGCTTATACTTGGAATCTCGGAGTCACCTAGTGCAG”, the binding signal is 9070 fluorescence intensity (a.u.). As for “GCGGTTTCTAGTTTGTCAATGCATATCAGCATCTCCATCGCGGAGTCACCTAGTGCAG”, the binding signal is 9720 fluorescence intensity (a.u.). With “ATTTAGAGTTGACTTTGGTTTATTTTTCATTGAAGTTTATCGGAGTCACCTAGTGCAG”, the binding signal was 9450 fluorescence intensity (a.u.). In the case of “CCAATCAACTTCTTTGATCATCCATGCATTCGTTACACTCCGGAGTCACCTAGTGCAG” it was 8620 fluorescence intensity (a.u.).

Take “CTTTGCCTGCGTTCTGCCTACACACAGCCGCCCTTGCCGACGGAGTCACCTAGTGCAG”: the binding signal is 10700 fluorescence intensity (a.u.). Turning to “ACAGGACGAACCGATCAACCCTAGCGGCTAAATTTGACTCCGGAGTCACCTAGTGCAG”, the binding signal is 9420 fluorescence intensity (a.u.). On to “TCCAAGTCCAGTGGCTCTACGACAACTCCACACACTAACTCGGAGTCACCTAGTGCAG”, for which the binding signal was 9490 fluorescence intensity (a.u.). For the sequence “TTTCTGCTGTGTCTGTGCGAGTTTGTTTTCTCTGAATCTCCGGAGTCACCTAGTGCAG”, the binding signal is 9680 fluorescence intensity (a.u.). Regarding “CACCTGTGGGCTAGATCAAAGAGAGGTAGCGGGCTGGGTTCGGAGTCACCTAGTGCAG”, the binding signal is 8620 fluorescence intensity (a.u.). With “ATATGGGTCCCACGGGTTTATTATTTTTTCCGTATCGAATCGGAGTCACCTAGTGCAG”, the binding signal was 9630 fluorescence intensity (a.u.). With “GCTTCCTTCTGGACCAACGTCTATCCACCGTTCCATAGCACGGAGTCACCTAGTGCAG”, the binding signal is 9380 fluorescence intensity (a.u.).

As for “ATTGTCCATGTCTATTACTCTACTTCTTAGCTACTTCTATCGGAGTCACCTAGTGCAG”, the binding signal is 12700 fluorescence intensity (a.u.).

As for “TCGTCTCGCGGTTTCCATACAAACCGTGCTATTAGTTTTTCGGAGTCACCTAGTGCAG”, the binding signal is 9520 fluorescence intensity (a.u.). Turning to “ATCTAAATGCATATGATTTCTTGTGTGTTGTAGTGGTGAGCGGAGTCACCTAGTGCAG”, the binding signal is 8470 fluorescence intensity (a.u.). As to “CACACGCGCCCACCTCGCCGATTTCTCCTCCACGCACGGGCGGAGTCACCTAGTGCAG”, the binding signal was 10000 fluorescence intensity (a.u.). In the case of “AAACAACTCACGCTGTCACTCACGCACGCATATCTTCCAACGGAGTCACCTAGTGCAG” it was 8990 fluorescence intensity (a.u.). On to “CATCACCCCAGTTGATATCCCGTGCTTTTACTATGGGATACGGAGTCACCTAGTGCAG”, for which the binding signal was 8230 fluorescence intensity (a.u.). Turning to “AAGTGGTTCTAGGGGTGTTTTAATTTTGCATGTCAACCTACGGAGTCACCTAGTGCAG”, the binding signal is 10800 fluorescence intensity (a.u.). For the sequence “GAGGAGGCGGGGAGGTGGGAGCGAGCTCGCTAGCTTAGGCCGGAGTCACCTAGTGCAG”, the binding signal was 9290 fluorescence intensity (a.u.). Take “AATCTCCAACCCTTCACACTCTCCTCTCATCCACGTAAACCGGAGTCACCTAGTGCAG”: the binding signal is 8880 fluorescence intensity (a.u.). On to “TCTTCCCGGTTGCTTCAGAGCCCATATTAACGCGACGTTCCGGAGTCACCTAGTGCAG”, for which the binding signal was 8210 fluorescence intensity (a.u.). Take “CATTGTCAGGGACAGCCTCGTAATTTTGCTGCCGGCCGGACGGAGTCACCTAGTGCAG”: the binding signal was 8880 fluorescence intensity (a.u.). “CTGCTCCGCTATTGTAGCTTTTGCTCGCTTTGCTTAGCTTCGGAGTCACCTAGTGCAG”: the binding signal was 8880 fluorescence intensity (a.u.). Turning to “GTGTGTTATAGGAGACGCATTTATGGGTGTGGGTATGACTCGGAGTCACCTAGTGCAG”, the binding signal is 9340 fluorescence intensity (a.u.). “GACACGGTTTTCGAAATATATTTTGACTTTGTGTTTTCTACGGAGTCACCTAGTGCAG”: the binding signal was 9060 fluorescence intensity (a.u.). In the case of “ACCGGATCCGGACCATCCCCAGCCACACGATCTCGCCCCTCGGAGTCACCTAGTGCAG” it was 8190 fluorescence intensity (a.u.); in that of “CTAAATATTTAACGCTGTTGACTTTTTAAAACATATTTGACGGAGTCACCTAGTGCAG”, 9280 fluorescence intensity (a.u.). As for “ATGATAAAACATGCGGAACACTTTGCAACATTTTACGTCTCGGAGTCACCTAGTGCAG”, the binding signal was 9080 fluorescence intensity (a.u.).

With “CCTTTCCACCGAGAGAAAATTTTTTGATCTGTTTGTTGTTCGGAGTCACCTAGTGCAG”, the binding signal is 9670 fluorescence intensity (a.u.). “AGCTTTCGTTGTTGGTTCTTGTTTTGAGGGAATCGTATGCCGGAGTCACCTAGTGCAG”: the binding signal was 10800 fluorescence intensity (a.u.). Consider “TGTTTTTGAGTTGTGTTTTCTTATCTAAGCGCTAGAGCAACGGAGTCACCTAGTGCAG”, for which the binding signal was 10400 fluorescence intensity (a.u.).

Take “CAAGAAAATCACGGCCCAATACTACAAGGCCCATATCTCTCGGAGTCACCTAGTGCAG”: the binding signal was 9070 fluorescence intensity (a.u.).

“ACCCGTCATTCCGTCCGAACATGTCTGCGGCCGTCACGTGCGGAGTCACCTAGTGCAG”: the binding signal was 8270 fluorescence intensity (a.u.). Consider “GTGTTTTTTCTATTCCTCTGTTTCTTCATTCCTACGATTCCGGAGTCACCTAGTGCAG”, for which the binding signal is 9100 fluorescence intensity (a.u.).

On to “ATCGATCCTGCCGTTTCGTTTCAGCGCTTTGTTTGCTTGACGGAGTCACCTAGTGCAG”, for which the binding signal is 13000 fluorescence intensity (a.u.).
